Laboratory results published in article PMC7330055.

By UniProt entry, the sequences of proteins in these tests, tags left out. Where a name states a change or a piece, a line headed by the entry shows the natural chain unless it says otherwise.
UniProt P33434: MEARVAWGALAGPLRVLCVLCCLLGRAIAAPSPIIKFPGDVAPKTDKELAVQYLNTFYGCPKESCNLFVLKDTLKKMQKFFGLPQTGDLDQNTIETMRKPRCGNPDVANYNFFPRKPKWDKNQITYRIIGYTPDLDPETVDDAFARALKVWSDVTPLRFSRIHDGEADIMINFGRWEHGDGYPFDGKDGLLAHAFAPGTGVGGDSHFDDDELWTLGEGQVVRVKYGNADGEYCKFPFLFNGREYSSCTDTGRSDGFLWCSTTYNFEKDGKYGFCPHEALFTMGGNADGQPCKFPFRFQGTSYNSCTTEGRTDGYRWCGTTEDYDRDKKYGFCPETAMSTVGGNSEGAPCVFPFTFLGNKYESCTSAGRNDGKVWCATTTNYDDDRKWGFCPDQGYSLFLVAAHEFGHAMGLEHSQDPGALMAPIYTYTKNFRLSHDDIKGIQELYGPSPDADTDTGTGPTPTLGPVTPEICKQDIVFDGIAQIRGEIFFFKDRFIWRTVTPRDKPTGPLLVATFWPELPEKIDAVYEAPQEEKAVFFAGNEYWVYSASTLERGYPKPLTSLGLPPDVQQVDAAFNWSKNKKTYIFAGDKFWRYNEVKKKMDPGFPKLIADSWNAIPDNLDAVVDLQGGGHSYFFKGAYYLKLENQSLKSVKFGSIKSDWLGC

Target: T1, Dentin sialoprotein (DSP), the NH2-terminal fragment of dentin sialophosphoprotein (DSPP) (mouse (endogenous in mouse odontoblastic cells and molars)) (UniProt P97399)
T1 sequence: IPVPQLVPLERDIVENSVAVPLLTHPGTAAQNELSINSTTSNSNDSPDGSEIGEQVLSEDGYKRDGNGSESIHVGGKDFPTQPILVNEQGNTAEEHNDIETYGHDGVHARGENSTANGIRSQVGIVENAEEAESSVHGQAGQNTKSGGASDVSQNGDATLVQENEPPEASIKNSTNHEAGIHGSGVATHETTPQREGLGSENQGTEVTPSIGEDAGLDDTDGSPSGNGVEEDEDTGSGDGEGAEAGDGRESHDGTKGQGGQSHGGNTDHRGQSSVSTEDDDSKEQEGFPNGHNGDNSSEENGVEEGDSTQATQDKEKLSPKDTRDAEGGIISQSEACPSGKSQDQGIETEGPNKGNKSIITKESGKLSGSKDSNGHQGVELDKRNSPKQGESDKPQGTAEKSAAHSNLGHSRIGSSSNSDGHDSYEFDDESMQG
Assay: proximity ligation; in situ Duolink PLA on fixed mouse odontoblastic cells on coverslips and on tissue sections of PN2 mouse mandibles; rabbit anti-DSP with goat anti-MMP9 or goat anti-MMP2, overnight at 4°C; red punctate signals

binding: binds
Substance: Matrix metalloproteinase 2 (MMP2) (from UniProt P33434) (enzyme)

No constants are given. Whether binding was seen depends on the method and setting. In cells and extracts the contact can be indirect. Binding can be weak; no strength is given.
